# Primary screen of a compound library

Each number is a percent effect as filed.
The record does not define 0% and 100%; most values in the screen are far below 50% and negative numbers occur (in some assays of this library far below -100).
Compounds were drawn at random from those tested, without regard to their results.
Two or more numbers in one place are separate tests of the same structure; such repeats can differ widely.

Mtb glucose medium: 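Whole-cell growth test on Mycobacterium tuberculosis, read after 3 days in glucose-containing 7H9 medium; the read-out is not stated. Compounds at 50 µM. Direction is inferred from retests: higher values go with more growth inhibition. Size under these conditions: about 69,000 compounds, about 760 of them at 50% or above in at least one test.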
Mtb cholesterol medium: 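Whole-cell growth test on Mycobacterium tuberculosis, read after 4 days in a medium based on cholesterol and the lipid DPPC; the read-out is not stated. Compounds at 50 µM. The record gives no direction; compounds that gave an IC50 in retests scored well above the rest, so higher reads as more growth inhibition. Size under these conditions: about 69,000 compounds, about 370 of them at 50% or above in at least one test.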

compound	Mtb glucose medium	Mtb cholesterol medium
COC(=O)c1c(Cl)c(C)nc2onc(C)c12	23.74	-3.332
CCN(CC1CCOC1)C(=O)Nc1ccc(N2CCCC2)nc1 (stereo not drawn)	-18.75	0.2143
CC(C)n1cnnc1C1CCCN(S(=O)(=O)c2c[nH]cn2)C1 (stereo not drawn)	-27.57	-16.78
OC(COCc1ccccc1Cl)CN1CCC(c2ccn[nH]2)CC1 (stereo not drawn)	16	12.59
CN(Cc1nnc(C2CC2)n1C)C1CCN(CCc2cnn(C)c2)C1 (stereo not drawn)	-56.57	-60.8
O=C(O)C(F)(F)F.[H][C@]12CCN(C(=O)c3ccco3)C[C@@]1([H])OCCN(C1CCOCC1)C2	-23.4	-21.13
CC(C)NC(=O)N1CCC2(CC1)Cc1ccccc1CN(C)C2=O	-8.47	-5.477
Cc1ccc(-n2ncc(C(=O)NC3CCCCC3)c2N)cc1	-18.98	-38.6
CCc1nc(C)sc1CN1CC[C@](C)(O)[C@H](C)C1	12.38	-8.355
CC(NCc1ccncc1)c1ccc(N2CCN(C)CC2)c(F)c1.Cl (stereo not drawn)	-1.451 & 2.347	8.627
Cc1nnc(C2CCN(c3ccccc3)CC2)o1	23.83	11.66
CN(Cc1nnn(CC2CC2)n1)C(=O)c1ccccc1	-13.28	-11.54
Fc1ccc(C2CN(c3ncnc4nc[nH]c34)CCO2)cc1 (stereo not drawn)	-6.16	-15.77
CN1CCN(Cc2cnc3n2CCN(Cc2cccs2)C3)CC1.O=C(O)C(F)(F)F.O=C(O)C(F)(F)F.O=C(O)C(F)(F)F	5.003	-2.921
Cc1ccnc(N2CCCC(c3nccn3C(C)C)C2)n1 (stereo not drawn)	-32	10.09 & -10.14
O=C(O)C(F)(F)F.O=C(O)C(F)(F)F.[H][C@]12CCN(CC(=O)N(C)C)[C@@]1([H])CC[C@H](COCc1cccnc1)O2	-29.07	-14.41 & -10.18
Cc1ccc(OC2(C(=O)O)CCN(C(=O)c3cc(C)oc3C)CC2)cn1	-4.496	12.38
CCc1noc(CN(C)Cc2cc3ccc(Cl)cc3[nH]c2=O)n1	7.826	6.686
CN(Cc1ccc(-n2cccn2)cc1)Cc1ncc[nH]1	1.353	5.211
O=C(CCc1ccccn1)N1CCCC1	-6.918	-7.502
CCCS(=O)(=O)CCN1CCN(C(C#N)c2ccccc2)CC1 (stereo not drawn)	-0.9984	-4.03
O=C(O)C(F)(F)F.[H][C@@]12CN(Cc3ccoc3)CCO[C@]1([H])CN(S(=O)(=O)N(C)C)C2	1.227 & -8.53	-24.19 & -5.543
COc1cc(CN(C)C(=O)NCCNC(=O)C2CC2)ccc1SC	17.24	-6.055
COc1ccc(C(=O)N2CCCC(n3cncn3)C2)nn1 (stereo not drawn)	-9.977	-27.96
[H][C@@]12C=C[C@@]([H])(C1)[C@H](C(=O)N1CCN(c3cc(C)c4ccccc4n3)CC1)C2	25.73	1
CCCN(Cc1cnn(C)c1)CC1CCCN(S(C)(=O)=O)C1 (stereo not drawn)	-51.06	-54.9
[H][C@]12CC[C@]([H])(CN(Cc3c(C)noc3C)C1)N(Cc1cccc(C=C)c1)C2	27.65	-4.121
O=C(N[C@]12CC1CN(C(=O)c1ccco1)C2)c1ccco1 (stereo partly drawn)	-10.28	0.977
Cn1cccc1C1CCCN1Cc1noc(C(C)(C)C)n1 (stereo not drawn)	10.05	8.334
CNc1cc(N2CCCC2CNCc2cnc(C)s2)ncn1 (stereo not drawn)	-4.947	4.878
CSc1ccc(NCc2csc(C)n2)cc1F	41.08	45.2
[H][C@@]12C[C@H](C(=O)NCC(C)C)[C@@]([H])(CN(C(=O)NCCc3ccccc3)C1)O2	-5.882	-0.8008
CN(c1ccc(C(=O)NCCCN2CCCCC2)c(Cl)c1)S(C)(=O)=O	-3.053	-8.162
COc1ccccc1CCNC(=O)CNC1CCc2nc(C)nn2C1 (stereo not drawn)	8.887	13.66
CC(=O)Nc1ccc(CNCc2ccc(CS(C)(=O)=O)cc2)cc1	-21.24	11.89
CS(=O)(=O)c1nccn1Cc1ccc(Cl)cc1	-12.91	13.79
O=C(O)C(F)(F)F.O=C(O)C(F)(F)F.[H][C@@]12CCCO[C@]1([H])[C@H](OCc1ccncc1)CN2Cc1scnc1C	-25.01 & -0.53	-6.39 & -2.832
[H][C@]12CC[C@]([H])(CN(Cc3ccncc3)C1)N(C(=O)CCn1cncn1)C2	1.183 & -1.691	-2.384
CCN(CC1CN(Cc2ccccn2)CCO1)c1cccnn1 (stereo not drawn)	-3.136	-2.652 & -8.501
CC[C@@H]1N(Cc2ccsc2)CCC[C@]12CCC(=O)N2CCOC.O=C(O)C(F)(F)F	-22.69	-4.056
CCC(=O)N1CCC(Cc2ccccc2-c2ccncc2)(C(N)=O)C1 (stereo not drawn)	24.63	-13.2
COc1cc(C)ccc1OCCC(=O)N1CCC(C(N)=O)C1 (stereo not drawn)	-0.5406	0.3197
O=C(O)C(F)(F)F.O=C(O)C(F)(F)F.[H][C@@]12CN(Cc3csc(C)n3)CCO[C@]1([H])CN(Cc1nccs1)C2	11.86	5.737
COCCn1c2c(ccc1=O)CC(N)CC2 (stereo not drawn)	13.82	18.41
CN1CCN(Cc2ccc(-c3ccc(C(N)=O)cc3)nc2)CC1	-19.7	-30.55
O=S(=O)(c1ccccc1)N1CCC[C@]2(C[C@H](OCC3CC3)CO2)C1	21.53	-2.948
Cc1ncc2c(n1)CN(CC(O)COc1ccc(C#N)cc1)CC2 (stereo not drawn)	13.85 & 2.198	-3.798
CCCn1nc(C)c(C(=O)N(C)[C@@H]2CC[C@@H](OC)[C@@H]2O)c1C	-8.73	3.982 & -6.32
CCn1cncc1CNC(=O)c1ccc(C2CCCN2C(=O)COC)s1 (stereo not drawn)	-19.5 & -0.7894	19.64
O=C1CCC(c2nc(C3CCN(C(=O)C4CC4)CC3)no2)N1 (stereo not drawn)	-12.54	1.766 & 0.4826
CCN1CCC2(CN(C(C)=O)CC23CCN(CC2CC2)CC3)C1=O.O=C(O)C(F)(F)F (stereo not drawn)	-19.2	17.15
CC(C)N1CCC(C(=O)N2CCC(c3ccc(F)cc3)C2)CC1 (stereo not drawn)	-4.615	-20.6
CC(=O)N1CCCCC1c1nc2c(c(N3CCCCC3)n1)CN(C)CC2 (stereo not drawn)	22.39	7.423
O=C(NCc1ccccc1)N1CCc2ncnc(NC3CC3)c2CC1	17.4	3.546
CCC(=O)NCc1cc(C2CC2)n(C2CCCC2)n1	-11.9 & 5.014	8.775
CCNC(=O)CN1CCc2c(Br)ccc(F)c2C1	33.98	-0.5818
CCC(CO)NC(=O)c1cc(COc2ccc(OC)cc2Cl)[nH]n1 (stereo not drawn)	12.29 & 4.938	7.585
Cc1nc2n(n1)CC(NCC(=O)N(C)Cc1cccs1)CC2 (stereo not drawn)	-2.418 & -19.69	-0.6257 & -15.56
COc1ccc(CN(C)c2nccc(-c3cn(C)nc3C)n2)cc1	20.08	14.05
O[C@H]1CC[C@@H](Cc2cc(-c3ccccn3)on2)O[C@@H]1CNCC1CC1	-3.882 & -4.667	4.977
O=C1COC2(CCN(C(=O)c3cnccn3)CC2)CN1CC1CC1	-8.955 & -68	-30.74
CCc1nc(N2CCC3(CC2)[C@H](O)C[C@@H]3O)ncc1C	25.61	1.058 & -9.129
CN(C)C(=O)c1cn[nH]c1C1CCCN1Cc1nccn1C.O=CO (stereo not drawn)	7.526	-9.849 & 4.488
COC(C)C(=O)NS(=O)(=O)c1cccc2cc(C)cnc12 (stereo not drawn)	-16.34	-16.07
CNc1cc(-c2ccccc2CN)c2cc[nH]c2n1	10.3	-7.605
CCCNC(=O)CCNC(=O)c1sc2ccc(F)cc2c1C	22.59	-36.26
N[C@H]1CN(S(=O)(=O)Cc2ccccc2)C[C@@H]1C1CC1	35.45	-5.725
c1ccc(-c2cc(CN3CCC(c4ccn[nH]4)CC3)on2)cc1	19.16	23.76
CCN(CCN1CCOCC1)C(=O)c1cccnc1	5.089	5.406
CC(C)c1nn(C)c(N(C)C)c1CNCC(O)c1cccc(F)c1 (stereo not drawn)	-2.312	-11.15
Cc1cnn(C2CN(CC(=O)NCC3(c4ccccc4)CCC3)C2)c1	20.56	-2.349 & 11.5
CCCc1cc(C(=O)N2Cc3ccccc3C2)[nH]n1	-13.39	-8.582
O=C(c1ccc[nH]1)N1CCC2(CC1)C(=O)Nc1ccccc12	31.3	0.3759
CCNS(=O)(=O)c1ccc(C)c(C(=O)N(C)Cc2ccccc2C)c1	-9.067 & -10.31	-9.008
CN(C)C(CNC(=O)c1cccc(-n2cnnn2)c1)c1ccccc1Cl (stereo not drawn)	-4.44 & -14.77	-21.54
CC(C)OCCN1CCC(C(=O)c2cc(F)ccc2F)CC1	-20.86 & 8.015	-3.387
Cc1nnc(SCC(=O)N2CCc3[nH]nc(C4CCC4)c3C2)o1	-23.87	3.608

Source: ChEMBL document CHEMBL3988442, “University of Dundee, Small-Polar-MMV Screening Library” (2021).